Data: ChEMBL document CHEMBL1131632 (J Med Chem, 1998)

The chains behind the UniProt entries cited, without tags or fusion partners. Where a name states a change or a piece, a line headed by the entry shows the natural chain unless it says otherwise.
UniProt P49288: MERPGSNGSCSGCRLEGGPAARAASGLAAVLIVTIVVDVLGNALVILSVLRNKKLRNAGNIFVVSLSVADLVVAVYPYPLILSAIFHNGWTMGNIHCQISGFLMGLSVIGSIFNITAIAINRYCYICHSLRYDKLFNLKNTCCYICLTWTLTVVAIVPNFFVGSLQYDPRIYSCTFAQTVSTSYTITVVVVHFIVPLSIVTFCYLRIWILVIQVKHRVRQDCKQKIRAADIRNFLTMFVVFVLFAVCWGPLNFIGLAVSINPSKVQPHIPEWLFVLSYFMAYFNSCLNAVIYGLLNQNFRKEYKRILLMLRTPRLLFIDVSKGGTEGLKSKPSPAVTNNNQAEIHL
UniProt P51050: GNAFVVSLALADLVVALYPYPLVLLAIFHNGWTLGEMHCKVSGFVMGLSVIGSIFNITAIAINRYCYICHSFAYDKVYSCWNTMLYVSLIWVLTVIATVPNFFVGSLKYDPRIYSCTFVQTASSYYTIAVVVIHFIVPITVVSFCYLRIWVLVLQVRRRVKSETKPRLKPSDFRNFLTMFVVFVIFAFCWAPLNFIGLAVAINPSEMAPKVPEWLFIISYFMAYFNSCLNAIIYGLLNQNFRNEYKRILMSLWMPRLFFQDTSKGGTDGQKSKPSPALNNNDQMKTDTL
UniProt P49285, whole entry, looked up: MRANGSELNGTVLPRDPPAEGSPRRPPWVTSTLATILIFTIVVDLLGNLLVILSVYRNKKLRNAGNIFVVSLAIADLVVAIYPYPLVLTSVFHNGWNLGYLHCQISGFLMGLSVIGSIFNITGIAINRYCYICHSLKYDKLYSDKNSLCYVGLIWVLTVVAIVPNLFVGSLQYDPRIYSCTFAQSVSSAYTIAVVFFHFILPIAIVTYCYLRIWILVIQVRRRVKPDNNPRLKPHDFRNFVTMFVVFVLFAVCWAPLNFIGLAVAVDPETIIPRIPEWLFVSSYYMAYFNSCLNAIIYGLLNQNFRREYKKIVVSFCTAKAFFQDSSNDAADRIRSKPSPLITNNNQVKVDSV

Target: Melatonin receptor (Gallus gallus) (UniProt P49288+P51050+P49285)
Settings: Coturnix

pRA: -2.37
Compound: CC(=O)NCCc1c[nH]c2cc(F)ccc12
